PubChem BioAssay AID1159578, Peter MacCallum Cancer Centre, 2015
In all, the deposit lists about 18,000 reagents; shown is a random part of them. About 1,030 of all reagents (5.7%) count as active. 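Inactive calls also include pools with fewer than 3300 nuclei, whose migration was not assessed.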 Raw values vary from plate to plate and are shown uncorrected. Entries without a mark were called inactive. Not all columns of the deposit are shown.

Purpose: 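siRNA pools altering how lymphatic endothelial cells close a scratch wound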 (primary screen)
System: human lymphatic endothelial cells
Reagent: siRNA pool against human genes, 40 nM
Timing: 48 h after transfection
Measured: 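High-content imaging of dye-stained cells in a scratch assay measures filled wound area and nuclei per well; duplicate means given as ratio to mock and robust z-score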
Scale: migration robust z-score: higher = faster migration into the scratch; nuclei per well: higher = more cells in the well
Active means: 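Pools averaging fewer than 3300 nuclei are never called; remaining pools count as changed when migration robust z lies outside -2 to 2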
Calls: active = migration changed; inactive = no migration change, or too few cells

For TIGD3, the entry reads migration robust z-score -0.67; nuclei per well, duplicate mean 5402.
With knock-down of KIF12, the record shows migration robust z-score -2.7; nuclei per well, duplicate mean 3276.
RAB6A showed migration robust z-score 0.6; nuclei per well, duplicate mean 5234.
For MCF2, the values are migration robust z-score 1.38; nuclei per well, duplicate mean 5840.
After knock-down of DLL3, the screen gave migration robust z-score -0.7; nuclei per well, duplicate mean 4635.
MARCHF9 gave migration robust z-score -0.54; nuclei per well, duplicate mean 5584.
EFNA2 scored migration robust z-score 0.88; nuclei per well, duplicate mean 4892.
Depletion of PSMG3 resulted in: migration robust z-score -1.06; nuclei per well, duplicate mean 6298.
With knock-down of TMEM218, the screen gave migration robust z-score -2.75 (active); nuclei per well, duplicate mean 5301.
After knock-down of GHRHR the results were migration robust z-score -1.58; nuclei per well, duplicate mean 3114.
ZBED8L scored migration robust z-score -0.44; nuclei per well, duplicate mean 6364.
MSI1 gave migration robust z-score 0.34; nuclei per well, duplicate mean 5312.
Knock-down of OR2F2 gave: migration robust z-score 0.2; nuclei per well, duplicate mean 5706.
For RAB3IP, the entry reads migration robust z-score -0.9; nuclei per well, duplicate mean 5625.
With knock-down of WTIP, the screen gave migration robust z-score 0.36; nuclei per well, duplicate mean 5694.
MARCHF7 scored migration robust z-score -0.47; nuclei per well, duplicate mean 6200.
TGIF2LY showed migration robust z-score 0.62; nuclei per well, duplicate mean 5233.
PTBP3 showed migration robust z-score -0.91; nuclei per well, duplicate mean 6432.
Silencing of PIEZO2 came out at: migration robust z-score -0.16; nuclei per well, duplicate mean 6472.
After knock-down of NOP58, the screen gave migration robust z-score 1; nuclei per well, duplicate mean 5513.
Silencing of SCRN3 resulted in: migration robust z-score 0.14; nuclei per well, duplicate mean 6310.

Not a retest: 2 of the entries above.
MSI1 — migration robust z-score: 0.34; nuclei per well, duplicate mean: 5312
OR2F2 — migration robust z-score: 0.2; nuclei per well, duplicate mean: 5706
